Assay results published in article PMC10163288.
The list shows a part of the results.

B1: il2ra_site2_2erj_normal_mot_HHH_b2_01353_af2_000000049_0001_23_39_H_._HHH_b1_04928_af2_0001_0001100046_0000001_0 (protein)
chain: SSSDLEEEVKELLEEAEELLKEGNPEEAEEVLREASEIVFQLGNFELFDRVLELLHEIARLQSSS
B2: il2ra_site1_2b5i_normal_mot_HHH_b2_06557_000000121_0001_42_56_H_._375b083c3fa73620112447366e1c9e02_0001_1_0001_0000200028_0000001_0_af2pred_0001_af2pred (protein)
chain: DEEVEELEELLEKAEDPRERAKLLRELAKLIRRDPRLRELATEVVARVHDIPPEHARKFLELLAS
B3: il2ra_site2_3nfp_sap_23_mot_HHH_b2_04319_af2_000000252_0001_42_56_H_._1119cc3ece11f8544cf99e05e324817a_0001_1_af2_0001_0000200031_0000001_0_0001 (protein)
chain: SSSSDEAEKLLLLIYRLLKEGDTEEAEELLERLKELIEKLGDPDLERLARIAELALEDANSSSSS
B4: il2ra_site1_3nfp_sap_17_mot_891b8491a18eb46c9ad5c1702b87f9cc_0001_000000120_0001_18_33_H_._HHH_b1_05006_af2_0001_0000100002_0000001_0_0001_af2pred_0001_af2pred (protein)
chain: SSSSTDVAREFEEIAREVQKLLQEGDHEEAEELIERLEELARERNDEAAKLLVKRLKRKASSSSS
B5: il2ra_site1_1z92_sap_23_mot_HHH_b2_06255_000000058_0001_43_57_H_._HHH_b1_03673_0001_0000700042_0000001_0_0001 (protein)
chain: SSSSSSERAIRWALELLEAAVRLNNEEQQEFLVRDARLLAENSNNPEARELVEEMEELLGSSSSS
B6: il2ra_site2_2erj_sap_31_mot_3b06bd03f1c6bceadc68eab912867b79_0001_000000296_0001_36_50_H_._HHH_b2_05768_0001_0000500009_0000001_0_0001_af2pred_0001_af2pred (protein)
chain: SSSSSEDEEEVEELLRQAEEAAKRDPERAFRLLLEALEIALKSNNEELERLVLEVSLRIVHSSSS
B7: il2ra_site1_2b5i_sap_9_mot_819758749a7565068ab34538b75d2992_0001_1_000000083_0001_35_49_H_._d48bb16d323c7c55e6503d01bab6ca6d_0001_af2_0001_0000200071_0000001_0_ … (protein)
chain: SSSSSSSAEEILARAKAEAAAVNRREALLTLDKAHKEVDALGDEELADEIERLARELLKSSSSSS
B8: il2ra_site1_2b5i_sap_22_mot_HHH_b1_00368_000000051_0001_1_18_H_._HHH_b2_06351_af2_0001_0000800038_0000001_0_0001 (protein)
chain: SSSSDEEVSRYALEVLRELWKLLSSGDPEEAKRLLEEAEEFLRERNDPTAVRDLQRLVEIGSSSS
B9: il2ra_site2_2erj_normal_mot_HHH_b1_00920_af2_000000121_0001_18_35_H_._HHH_b1_07577_0001_0000300020_0000001_0_af2pred_0001_af2pred (protein)
chain: SSSSDEEVEEAFELAAEVLLELLEEGDEELARELYELLDRLIRHGDPRIAKELEEFLEKLSSSSS
B10: il2ra_site2_2erj_sap_26_mot_HHH_b1_04373_af2_000000118_0001_18_33_H_._HHH_b2_03966_0001_0000600025_0000001_0_0001_af2pred_0001_1_af2pred_swapped (protein)
chain: SSSDEESERIALFARLMAEYAEEQGDPELARRSLELAIRRLRELGDEEFVEELERLLEELNSSSS
B11: il2ra_site2_3nfp_normal_mot_HHH_b1_00660_af2_000000090_0001_40_57_H_._HHH_b1_04936_0001_0000200021_0000001_0_af2pred_0001_1_af2pred_swapped (protein)
chain: SSSSSDQEVRELLEEARELLEEGDPEEAEEVLRRASQIAFELQNHELFALVVRLLEEILQSSSSS
B12: il2ra_site1_1z92_sap_19_mot_HHH_b1_08133_000000026_0001_1_19_H_._HHH_b2_05485_0001_0000100003_0000001_0_0001 (protein)
chain: SEERMHEMALRYAGDPERALRILLKIARAFGDEEVVELIEELLERVRRGEIPPEEAVELAVRLVA
B13: il2ra_site1_2b5i_sap_14_mot_HHH_b1_03046_af2_000000154_0001_39_55_H_._HHH_b1_00888_af2_0001_0000300015_0000001_0_0001_af2pred_dldesign_0_af2pred (protein)
chain: SSSSSSEDAREQVDELIEEAKKLEDPLERRKILTLARLIAKKAKDEELLKRIEEVEAELSSSSSS
B14: il2ra_site1_3nfp_sap_20_mot_HHH_b2_06429_af2_000000115_0001_1_18_H_._HHH_b1_03290_0001_0000300026_0000001_0_0001_af2pred_0001_af2pred_swapped (protein)
chain: SSSSNALELLREAAEELVRLLQEGDREEAERLLKEVAQELKELGNRHAARSLERAFELLARSSSS
B15: il2ra_site1_2b5i_sap_7_mot_HHH_b1_07956_af2_000000065_0001_19_34_H_._HHH_b2_02012_0001_0000300005_0000001_0_0001 (protein)
chain: SSSSDADRELVRFIFRLMFRFGLSAEQSQLLNRLLAELLEEGVSDEEIKRLLEELAEELSSSSSS
B16: il2ra_site1_1z92_normal_mot_54e474eed2d0515e81978198f0f96ec2_0001_000000202_0001_15_30_H_._321007649576c6d16d41e547348c2159_0001_0001_0000100011_0000001_0_af2pr … (protein)
chain: SVYVLDAERDAKLGLPPENVAKALARFLLEELGDPEEAEELLQELVEKTKDPILELAIEIVRELG
B17: il2ra_site1_3nfp_normal_mot_HHH_b2_00162_af2_000000036_0001_22_38_H_._HHH_b2_07432_af2_0001_0000100001_0000001_0 (protein)
chain: SSSSSDKRELLQRAFELVREAIKTKDEEELREIIEEAERIAEEAGDEKLLESLRRALELLSSSSS
B18: il2ra_site1_1z92_normal_mot_HHH_b1_01565_af2_000000147_0001_1_17_H_._HHH_b1_05822_0001_0000100006_0000001_0 (protein)
chain: SSSSSVLEIVEELLELLEELGDEELLRRLQEALERAQRHGDLELLKELDEIAVEVDEILESSSSS
B19: il2ra_site2_3nfp_sap_18_mot_HHH_b1_06589_000000230_0001_37_50_H_._HHH_b2_08153_af2_0001_0000100002_0000001_0_0001 (protein)
chain: SSSSDLENVVESAEQIAEELGDEETLEELERLLEEAKETGDPRLELEVFALARELYLKAVRSSSS

Each binder was assayed against il2ra, P01589 (assay: yeast display titration).

Apparent Kd, inactive:
B1 no binding seen, B2 no binding seen, B3 no binding seen, B4 no binding seen, B5 no binding seen, B6 no binding seen, B7 no binding seen, B8 no binding seen, B9 no binding seen, B10 no binding seen, B11 no binding seen, B12 no binding seen, B13 no binding seen, B14 no binding seen, B15 no binding seen, B16 > 583 nM, B17 no binding seen, B18 no binding seen, B19 no binding seen
